Consider 2 molecules from paper PMC11423137.

Sequences of proteins named here, by UniProt entry; tags and fusion partners are left off.
UniProt P21673: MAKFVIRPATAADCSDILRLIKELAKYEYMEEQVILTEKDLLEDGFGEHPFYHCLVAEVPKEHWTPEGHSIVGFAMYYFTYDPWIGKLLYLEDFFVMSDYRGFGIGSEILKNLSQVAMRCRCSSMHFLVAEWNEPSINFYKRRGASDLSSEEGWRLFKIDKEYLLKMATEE
UniProt P67809: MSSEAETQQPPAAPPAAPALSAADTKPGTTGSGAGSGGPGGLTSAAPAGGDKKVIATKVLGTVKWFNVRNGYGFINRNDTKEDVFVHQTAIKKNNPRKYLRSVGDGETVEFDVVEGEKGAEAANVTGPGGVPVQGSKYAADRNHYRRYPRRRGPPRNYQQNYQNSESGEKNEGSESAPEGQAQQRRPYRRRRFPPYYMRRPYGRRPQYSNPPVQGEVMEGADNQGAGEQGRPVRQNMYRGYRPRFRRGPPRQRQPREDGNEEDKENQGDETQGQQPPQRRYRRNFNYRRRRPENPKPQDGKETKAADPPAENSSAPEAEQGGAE

Results are given in words; binding and its absence hold for the method and conditions named. Binding seen in cells or lysates may run through a third protein. Some entries that bind do so weakly or less than the wild type.

Assay [1] deals with Spermidine/Spermine N1-acetyltransferase 1 (human (endogenous in BT549 and SUM159PT)) (UniProt P21673). In words: co-IP; lysates in IP lysis buffer with PMSF; primary antibody overnight at 4 °C, protein A/G magnetic beads 3 h at 4 °C; immunoblot; BT549 and SUM159PT (SAT1-YBX1), BT549 (HERC5-YBX1). For orientation: In western blotting, separated proteins are transferred to a membrane and probed.

Assay [2] concerns the target Y-box binding protein 1 (human (endogenous in BT549 and SUM159PT)) (UniProt P67809). Described as above.

As to “Y-box binding protein 1 (from UniProt P67809 1-324)”, the binding result in assay [1] was “binds”.

B1: E3 ligase HERC5 (enzyme, UniProt Q9UII4 1-1024)
chain: MERRSRRKSRRNGRSTAGKAAATQPAKSPGAQLWLFPSAAGLHRALLRRVEVTRQLCCSPGRLAVLERGGAGVQVHQLLAGSGGARTPKCIKLGKNMKIHSVDQGAEHMLILSSDGKPFEYDNYSMKHLRFESILQEKKIIQITCGDYHSLALSKGGELFAWGQNLHGQLGVGRKFPSTTTPQIVEHLAGVPLAQISAGEAHSMALSMSGNIYSWGKNECGQLGLGHTESKDDPSLIEGLDNQKVEFVACGGSHSALLTQDGLLFTFGAGKHGQLGHNSTQNELRPCLVAELVGYRVTQIACGRWHTLAYVSDLGKVFSFGSGKDGQLGNGGTRDQLMPLPVKVSSSEELKLESHTSEKELIMIAGGNQSILLWIKKENSYVNLKRTIPTLNEGTVKRWIADVETKRWQSTKREIQEIFSSPACLTGSFLRKRRTTEMMPVYLDLNKARNIFKELTQKDWITNMITTCLKDNLLKRLPFHSPPQEALEIFFLLPECPMMHISNNWESLVVPFAKVVCKMSDQSSLVLEEYWATLQESTFSKLVQMFKTAVICQLDYWDESAEENGNVQALLEMLKKLHRVNQVKCQLPESIFQVDELLHRLNFFVEVCRRYLWKMTVDASENVQCCVIFSHFPFIFNNLSKIKLLHTDTLLKIESKKHKAYLRSAAIEEERESEFALRPTFDLTVRRNHLIEDVLNQLSQFENEDLRKELWVSFSGEIGYDLGGVKKEFFYCLFAEMIQPEYGMFMYPEGASCMWFPVKPKFEKKRYFFFGVLCGLSLFNCNVANLPFPLALFKKLLDQMPSLEDLKELSPDLGKNLQTLLDDEGDNFEEVFYIHFNVHWDRNDTNLIPNGSSITVNQTNKRDYVSKYINYIFNDSVKAVYEEFRRGFYKMCDEDIIKLFHPEELKDVIVGNTDYDWKTFEKNARYEPGYNSSHPTIVMFWKAFHKLTLEEKKKFLVFLTGTDRLQMKDLNNMKITFCCPESWNERDPIRALTCFSVLFLPKYSTMETVEEALQEAINNNRGFG
For the molecule B1, in assay [2], the binding entry is given as “binds”.
